These are yes or no findings as the source states them, for the method shown. In cells and extracts the contact can be indirect. Here binding means that the protein was enriched with, or labelled near, the bait; the list need not be complete.
B1: chromatin modifying protein 4B-like 1 (protein, UniProt D4A9Z8 1-224)
chain: MSVFGKLFGAGWGKAGKGDPTPQEAIQRLRDTEEMLSKKQEFLEKKIEQELTAAKKHGTKNKRAALQALKRKKRYEKQLAQIDGTLSTIEFQREALENANTNTEVLKNMGYAAKAMKAAHDNMDIDKVDELMQDIADQQELAEQTSTAISKPVGFGEEFDKDELMAELEELEQEELDKNLLEISGPETVPLPNVPSVALPSKPAKKKEEEDDDMKELENWAGSM
B2: GAK (protein, UniProt P97874 1-1305)
chain: MSLLQSALDFLAGPGSLGGAAGRDQSDFVGQTVELGELRLRVRRVLAEGGFAFVYEAQDLGSGREYALKRLLSNEEEKNRAIIQEVCFLKKLSGHPNIVQFCSAASIGKEESDTGQAEFLLLTELCKGQLVEFLRRVECKGPLSCDSILKIFYQTCRAVQHMHRQKPPIIHRDLKVENLLLSNQGTIKLCDFGSATTISHYPDYSWSAQKRAMVEEEITRNTTPMYRTPEIVDLYSNFPIGEKQDIWALGCILYLLCFRQHPFEDGAKLRIVNGKYSIPVNDTRYTVFHDLIRGMLKVNPEERLSIAEVVRQLQEIAAARNVNPKAPITELLEQNGGYGNSGPSRAQPPSGGPVNSSGVLALAEYDQPYGGFLDILRGGTERLFTNLKDTSSKVIQSVANYAKGDLDISYITSRIAVMSFPAEGVESAIKNNIEDVRLFLDAKHPGHYAVYNLSPRIYRASKFHNRVTECGWAVRRAPHLHSLYTLCRSMHAWLREDHRNVCVVHCMDGRAASAVAVCAFLCFCRLFSTAEAAVYMFSMKRCPPGIWPSHKRYIEYVCDMVAEEPITPHSKPMLVKSVVMTPVPLFSKQRNGCRPFCEVYVGEERVTTTSQEYDRMKEFKIEDGKAVIPLGITVQGDVLTIIYHARSTLGGRLQAKMASMKMFQIQFHTGFVPRNATTVKFAKYDLDACDIQEKYPDLFQVNLEVEVEPRDRPSRDVPPWENTSLRGLNPKILFSNREEQQDILSKFGKPELPRQPGSTAQYDAEAGSPEAEITESDSPQSSSTDTNHFLHTLDWQEEKDPETGVDNTSPKESQSNLIADGDGSEVSDEEEASCPSEERKPGAGEDTPRLAAGTRQQDLIFDVGMLAAPQEPVQPEEGVDLLGLHSEGDLRPAAPLQASGVQSSNTDLLSSLLEPSDASQVGPPGDLLGGETPLLLASPVSLLGVQSNLQGKVPDTVDPFDQFLLPSSSDTQPCSKPDLFGEFLNSDSVASSTAFPSTHSAPPPSCSTAFLHLGDLPAEPNKVIASSSHPDLLGGWDTWAETALPGPASMPVPEGTLFSSAGHPAPPGPNPSQTKSQNPDPFADLSDLSSSLQGLPAGLPAGSFVGTSATTHKSNSSWQTTRPTAPGTSWPPQAKPAPRASEQLRSHFSVIGAREERGVRAPSFAQKPKVSENDFEDLLPNQGFSKSDKKGPKTMAEMRKQELARDTDPFKLKLLDWIEGKERNIRALLSTLHTVLWDGESRWTPVSMADLVTPEQVKKQYRRAVLVVHPDKATGQPYEQSAKMIFMELNDAWSEFENQGSRPLF
B3: Adaptin ear-binding coat-associated protein 1 (protein, UniProt P69682 1-277)
chain: MAAELEYESVLCVKPDVSVYRIPPRASNRGYRASDWKLDQPDWTGRLRITSKGKIAYIKLEDKVSGELFAQAPVEQYPGIAVETVADSSRYFVIRIQDGTGRSAFIGIGFTDRGDAFDFNVSLQDHFKWVKQETEISKESQEMDSRPKLDLGFKEGQTIKLSIGNITAKKGGTSKPRASGTGGLSLLPPPPGGKVTIPPPSSSVAISNHVTPPPIPKSNHGSNDSDILLDLDSPAPVPTSAPAPAPASTSNDLWGDFSTASSSVPNQAPQPSNWVQF
B4: Lactadherin (protein, UniProt P70490 23-427)
chain: ASGDFCDSSLCLNGGTCLMGQDNDIYCLCPEGFTGLVCNETEKGPCSPNPCFHDAKCLVTEDTQRGDIFTEYICQCPVGYSGIHCELGCSTKLGLEGGAIADSQISASSVYMGFMGLQRWGPELARLYRTGIVNAWTASSYDSKPWIQVDFLRKMRVSGVMTQGASRAGRAEYLKTFKVAYSLDGRRFEFIQDESGTGDKEFMGNQDNNSLKINMFNPTLEAQYIRLYPVSCHRGCTLRFELLGCELHGCSEPLGLKNNTIPDSQITASSSYKTWNLRAFGWYPHLGRLDNQGKINAWTAQSNSAKEWLQVDLGTQKKVTGIITQGARDFGHIQYVASYKVAHSDDGVQWTVYEEQGTSKVFQGNLDNNSHKKNIFEKPFMARYVRVLPLSWHNRITLRLELLGC
B5: UBXN1 (protein, UniProt Q499N6 1-297)
chain: MAELTALESLIEMGFPRGRAEKALALTGNQGIEAAMDWLMEHEDDPDVDEPLETPLSHILGREPTPSEQVGPEGSGSAAGESKPVLTEEERQEQTKRMLELVAQKQREREEREEREALEREKQRRRQGQELSAARQKLQEDEIRRAAEERRREKAEELAARQRVREKIERDKAERAQKYGGTVGSRSSPPATDPGPVPSSPRQEPPTKREYDQCRIQVRLPDGTSLTQTFRAREQLAAVRLYVELHRGEEPGQDQDPVQLLSGFPRRAFSEADMERPLQELGLVPSAVLIVAKKCPS
B6: Carbonic anhydrase 3 (protein, UniProt P14141 1-260)
chain: MAKEWGYASHNGPEHWHELYPIAKGDNQSPIELHTKDIRHDPSLQPWSVSYDPGSAKTILNNGKTCRVVFDDTFDRSMLRGGPLSGPYRLRQFHLHWGSSDDHGSEHTVDGVKYAAELHLVHWNPKYNTFGEALKQPDGIAVVGIFLKIGREKGEFQILLDALDKIKTKGKEAPFNHFDPSCLFPACRDYWTYHGSFTTPPCEECIVWLLLKEPMTVSSDQMAKLRSLFASAENEPPVPLVGNWRPPQPIKGRVVRASFK
B7: bolA family member 2 (protein, UniProt D4A9P7 1-86)
chain: MELSADYLREKLRQDLEAEHVEVEDTTLNRCATSFRVLVVSAKFEGKPLLQRHRLVNECLAEELPHIHAFEQKTLTPEQWTRQRQE
B8: T-complex protein 1 subunit beta (protein, UniProt Q5XIM9 1-535)
chain: MASLSLAPVNIFKAGADEERAETARLSSFIGAIAIGDLVKSTLGPKGMDKILLSSGRDASLMVTNDGATILKNIGVDNPAAKVLVDMSRVQDDEVGDGTTSVTVLAAELLREAESLIAKKIHPQTIIAGWREATKAAREALLSSAVDHGSDEVKFWQDLMNIAGTTLSSKLLTHHKDHFTKLAVEAVLRLKGSGNLEAIHVIKKLGGSLADSYLDEGFLLDKKIGVNQPKRIENAKILIANTGMDTDKIKIFGSRVRVDSTAKVAEIEHAEKEKMKEKVERILKHGINCFINRQLIYNYPEQLFGAAGVMAIEHADFAGVERLALVTGGEIASTFDHPELVKLGSCKLIEEVMIGEDKLIHFSGVALGEACTIVLRGATQQILDEAERSLHDALCVLAQTVKDPRTVYGGGCSEMLMAHAVTMLASRTPGKEAVAMESFAKALRMLPTIIADNAGYDSADLVAQLRAAHSEGRITAGLDMKEGSIGDMAVLGITESFQVKRQVLLSAAEAAEVILRVDNIIKAAPRKRVPDHHPC
B9: KN motif and ankyrin repeat domains 2 (protein, UniProt D3ZD05 1-847)
chain: MAQVLHVPAPFPGTPGQASSAAFPNKEPDPPYSVETPYGYRLDLDFLKYVDDIEKGHTLRRVPVQRRPRLGSLPRGPGSWWTSTESLCSDASGDSRHSAYSYCGRGFYPQYGALETRSGTNPRVERTLLDARRRLEDQAAAPSSGGLGSLTPSAAGSTSSLAGVGLLPPTPRSSGLSTPVAPSAGHLAHVREQMAGALRKLRQLEEQVKLIPVLQVKLSVLQEEKRQLTVQLKSQKFLGHPSGTRSRSELCLDLPEAPDDPAVLETRSVGTWVRERDLGIPDGEAALVAKVAVLETQLKKALQELRAAQTQQVDLQPQAWPPPDTQVRVDTVRVVEGPREVEVAASTAAGAPAQRAQSLEPYGAGLKALATSAENTLVFRSHEVVETMCPLPTASTSNMHTAKKISITERNCTGAARMADPPPSPAEPSPSSPYPAAEPENPAPAAQDTTDRELTRPVASQDSQAAEGAGGASLGVQSALKRKEVPADPDVHQRNLQFVGINGGYESSSEDSSTAENSEHESTENEAPEPPVRVLSTAEGPQLRPLGPAVGKTSQDERQLSQESQRVPEAKVAPGPDPEEEIRMDLSPDLISACLALEKYLENPNALTERELKVAYTTVLQEWLRLACRSDAHPELVRRHLVTFRAMSARLLDYVVNIADSNGNTALHYSVSHANFPVVRQLLDSGVCQVDKLNRAGYSPIMLTALATLKTQDDIDTILQLFRLGNVNAKASQAGQTALMLAVSHGRVDVVKALLACEVDVNMQDEDGSTALMCACEHGHKEITGLLLAVPSCDISLTDRDGSTALMVALDAGQSEIASMLYSRMNIKCSFAPMSDYESPASSSAEE
B10: Kinesin-like protein;Kinesin-like protein KIF1C (rat) (protein, UniProt O35787 1-1097)
chain: MAGASVKVAVRVRPFNARETSQDAKCVVSMQGNTTSIINPKQSRMFLKASFDYSYWSHTSVEDPQFASQQQVYRDIGEEMLLHAFEGYNVCIFAYGQTGAGKSYTMMGRQEPGQQGIVPQLCEDLFSRVNVNQSAQLSYSVEVSYMEIYCERVRDLLNPKSRGSLRVREHPILGPYVQDLSKLAVTSYADIADLMDCGNKARTVAATNMNETSSRSHAVFTIVFTQRSHDQLTGLDSEKVSKISLVNLAGSERADSSGARGMRLKEGANINKSLTTLGKVISALADLQSKKRKSDFIPYRDSVLTWLLKENLGGNSRTAMIAALSPADINYEETLSTLRYADRTKQIRCNAVINEDPNARLIRELQEEVARLRELLMAQGLSASALGGLKVEEGSPGGVLPAASSPPAPASPSSPPPHNGELEPSFSPSAEPQIGPEEAMERLQETEKIIAELNETWEEKLRKTEALRMEREALLAEMGSPGGWRTVGVFSPKKTPHLVNLNEDPLMSECLLYHIKDGVTRVGQVDVDIKLTGQFIREQHCLFRSIPQPDGEVMVTLEPCEGAETYVNGKLVTEPLVLKSGNRIVMGKNHVFRFNHPEQARLERERGVPPPPGPPSEPVDWNFAQKDWLEQQGIDIKLEMEKRLQDLENQYRKEKEEADLLLEQQRLYADSDSGEDSDKRSCEESWRLISSLRDELPPNTVQTIVKRCGLPSSGKRRAPRRVYQIPQRRRLQGKDPRWATMADLKMQAVKEICYEVALADFRHGRAEIEALAALKMRELCRTYGKPEGPGDAWRAVARDVWDTVGEEEGCGGGGGGGEEGARGAEVEDLRAHIDKLTGILQEVKLQNSSKDRELQALRDRMLRMERVIPLTQDLEDDNEESGLVTWAPPEGSEAVEEAVSNDHSPAVRPSSPPQSSWERVSRLMEEDPAFRRGRLRWLKQEQLRLQGLQGSGGRGGGLRRPPARFVPPHDCKLRFPFKSNPQHRESWPGMGSGEAPGPQPPEEVTAPPPPPNRRPPSPRRPHRPRRNSLDGGSRSRGGGSTQPEPQHLRPQKHNSYPQQPQPYPAQRPGPRYPPYTTPPRMRRQRSAPDLKESGAAV
B11: PARK7 (protein, UniProt O88767 1-189)
chain: MASKRALVILAKGAEEMETVIPVDIMRRAGIKVTVAGLAGKDPVQCSRDVVICPDTSLEEAKTQGPYDVVVLPGGNLGAQNLSESALVKEILKEQENRKGLIAAICAGPTALLAHEVGFGCKVTSHPLAKDKMMNGSHYSYSESRVEKDGLILTSRGPGTSFEFALAIVEALSGKDMANQVKAPLVLKD

What follows are binders tested against Huntingtin-interacting protein 1 (rat) (rat (endogenous in rat FLS)) (assay: affinity purification with mass spectrometry; rabbit anti-rat-HIP1 antibody (20 μg per sample) on Dynabeads M-270 Epoxy; total lysates of rat FLS (one DA and one R6 cell line, each in triplicate), starved 24 h, then PDGFβ 100 ng/mL 30 min; lysis in water with protease and phosphatase inhibitors by three freeze-thaw cycles; elution with 8 M urea, LysC and trypsin, nano-LC-MS/MS, label-free quantitation).

binding, binds:
B1, B2, B3, B4, B5, B6, B7, B8, B9, B10, B11
